Measurements from publication PMC8032900.

B1: AtNFY-B2 (NUCLEAR FACTOR-Y subunit B2), Arabidopsis thaliana (protein, UniProt Q9FGJ3 1-190)
chain: MGDSDRDSGGGQNGNNQNGQSSLSPREQDRFLPIANVSRIMKKALPANAKISKDAKETMQECVSEFISFVTGEASDKCQKEKRKTINGDDLLWAMTTLGFEDYVEPLKVYLQRFREIEGERTGLGRPQTGGEVGEHQRDAVGDGGGFYGGGGGMQYHQHHQFLHQQNHMYGATGGGSDSGGGAASGRTRT

What was measured:
Assay in all cases: two-hybrid; GAL4 system; BD fusions (pDEST32) in PJ69-4α mated with AD fusions (pDEST22) in PJ69-4a; diploids spotted on SD-LWH without or with 1, 2, 10, 25, 50, 100 mM 3AT, 10 days at 28°C, triplicate; growth scored 0 to 3; every protein tested as BD and as AD fusion (target = BD fusion, binder = AD fusion); Figure 6A at 2 mM 3AT, network of Figure 6B at 10 mM 3AT
[1] = biological target: T1, AtNFY-B2 (NUCLEAR FACTOR-Y subunit B2), Arabidopsis thaliana (A. thaliana) (UniProt Q9FGJ3)
T1 sequence: B1 chain

[2] = biological target: M. truncatula NF-YC-like protein Medtr3g099180 (Medicago truncatula)
[3] = biological target: MtFE (Medtr6g444980), Medicago truncatula FE homolog (Medicago truncatula)

Row | Molecule | binding [1] | binding [2] | binding [3]
1 | M. truncatula NF-YC-like protein Medtr3g099180 (Medicago truncatula) | binds | – | –
2 | B1 | – | binds | binds

No constants are given. Whether binding was seen depends on the method and setting. Binding can be weak; no strength is given.
